# Measurements taken from PubChem BioAssay AID1508600 (Functional Genomics Laboratory (NCATS/FGL), 2020).
# Hit rate of the full screen: of about 53,000 sequences, about 3,700 (7%) were called active.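 Rule for the calls: active = gene knockdowns whose robust z-score for IL-1 alpha signal is at least 2 or at most -2, so actives lie on both sides; inactive = the rest.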 Some of the results follow.
# Test: Components of the Cytosolic LPS Sensing Pathway: Gene Identification via Genome-wide siRNA Screen;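 note: robust z of the log signal after scaling to non-targeting control siRNA wells of the plate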
# Settings: RAW264.7 macrophages, IL-1a HTRF, actives lie on both sides, screened at 100 nM (by protocol), cells primed 5 h with Pam3CSK4 first
# Summary of the method: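 RAW264.7; siRNA 100 nM final, RNAiMAX, 48h 37 degrees C; Pam3CSK4 5 h; LipidA + TransIT-TKO 24 h; IL-1a HTRF; CellTiter-Glo viability; robust z vs negative-control median.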
row,Sequence,z-score
1,AAAAAACAGCACCCUGAUGTT against Olfr204,inactive: 1.1
2,GGACAAAGACAAACUUUAATT against Scn4a,inactive: -0.236
3,GGAUGUCAGUAUUUCCUGGTT against Glrx,inactive: -0.255
4,GGCUCUAUGUUUAUAAUGATT against Olfm5,active: -2.07
5,GGGUCUUAUCUCGAUGAGGTT against Flt3l,inactive: -0.199
6,CCAACAACGGCAUUCACUATT against Ebf3,inactive: -0.676
7,GCCUUUAAGAUACUAUCCATT against Lysmd4,inactive: 0.676
8,GCUUUGUAGGAGUUUUUAATT against Rhoq,inactive: 1.5
9,GGAACAGAGUGUCCACAAUTT against Apof,inactive: -1.68
10,UUAAGGAAAUGUUCUGUUCTT against Olfr426,inactive: 0.797
11,GGUUUACAAAAAUUCUCAGTT against Hcn1,inactive: -0.124
12,GCCAUUGUACAGCUACCAUTT against Figla,inactive: -0.186
13,GCUAUCCUAAUCCUCAAUATT against Tmprss11d,inactive: -0.182
14,GGGCAGUGAAAUCCUGUCUTT against Trim16,active: -2.81
15,GGAAUGGAUCCUGAUGAUATT against Spcs2,inactive: -0.877
16,GGAAGCACCCACAAAACCUTT against Barx2,inactive: -1.19
17,GGAGAGCAUUCCCAUUGCUTT against Ddx6,active: -2
18,GGAAGGAGAAUGGUACUGGTT against Cd209e,inactive: -1.66
19,GCUAAAAAAGCUUCUUCAUTT against Gypc,inactive: -0.48
20,GGUUGUCUUUCUACUCGGGTT against Plpp1,inactive: 1.37
21,GCUAUCAUUAACAACAAAGTT against Olfr808,inactive: -1.79
22,GGUGUUUAAAUUCAUCUACTT against Sec16a,inactive: 0.88
23,GUCCUGAAAAUGCUAUUCUTT against Olfr68,inactive: 0.281

row,Sequence,z-score
1,GGAAUGAGCUCGAUUAUAATT against Nrip1,inactive: 1.21
2,CGAUAUGAUGACAAAUCAGTT against Pik3ap1,inactive: -0.352
3,CCAGCUUUUACCUAAUACCTT against Ggt1,inactive: 0.0683
4,GGAGACACAUAGGUGUAAATT against H2-T23,inactive: 0.458
5,GGAUCUUUUAGCUAACCUATT against Tesk2,inactive: 1.84
6,GGCUGGAUGUAGAAAAUAUTT against Aspm,active: -2.1
7,GGGUUUUUCAUGUGUUUACTT against Rbpms2,inactive: -0.259
8,CCACUUUGGUGUAUAGUCATT against Hnrnpab,inactive: 1.08
9,CCUAAAAUCCACCAAGCUUTT against Zbtb46,inactive: -0.489
10,GGCCCUGUAUUUCUCUGACTT against Plat,inactive: -1.03
11,GGAUAAGAGACAAUGAAUUTT against Fut7,inactive: -1.19
12,GAAUCAGCUGUUCUCUCACTT against Tm2d3,active: 2.25
13,CCAAGUGUAUUUCACAUAATT against F2r,inactive: -0.395
14,GCUUUCCUGUGCUCCAACGTT against Olfr527,inactive: 1.38
15,GGCCUUCAAGAACUCCUCCTT against Zfp628,inactive: 0.939
16,GGUGGUCUAAGUCCUGACATT against Hmx1,inactive: -0.112
17,GCCCACUUUCUAGGUAGUUTT against Olfr703,inactive: 0.164
18,GCAUGAGGAAAAAUCUUCATT against Neurod4,inactive: -0.158
19,GCUCUUUCAACAUGUAGUUTT against Olfr1180,inactive: -1.1
20,GCACUAAGUGGUCCAAUUATT against Ephx4,inactive: -1.39
21,GGGCUCGUAAAGAAAGAAGTT against Cep41,inactive: -1.15
22,GGAGCAGUUACAGGAAAUCTT against Cdr2,active: -2.11
23,GGAUAAGACUUUAGCUUUUTT against Fbxo45,inactive: 0.839

row,Sequence,z-score
1,GGAGGAGAAAAAUUGUAUUTT against A530053G22Rik,inactive: 0.0138
2,ACAAAGUCUGUUCAAGAUCTT against Oc90,inactive: -0.0677
3,GGGAAAAUAACAAAAAGAGTT against Hoxc6,inactive: -1.07
4,GAUACUGUCUACAAGCUUCTT against Cep44,inactive: 0.604
5,GAAUGAGUUCUGCCCAGUCTT against Lhb,inactive: 0.128
6,GAUGAUGAACGACUGGUUCTT against Olfr285,inactive: 0.456
7,GGAAGCCUUAUAUCGGGCGTT against Togaram1,inactive: 1.1
8,CGGGUUCCCAGGAAUUAAGTT against Col4a6,inactive: 0.304
9,GGGAAGUUCAUUUGUUAAATT against Gosr1,inactive: 0.965
10,GGCAUUAGAGCAGAGUCGUTT against Trmu,inactive: -1.29
11,CCUACAGGGAAUACGUGUATT against Ttc17,inactive: -0.0575
12,GGUUGGUAGACUGUGCUUGTT against Hgsnat,active: -2.56
13,GCUGUAUUAUGUAGCUUCUTT against Ddx27,inactive: 0.325
14,GGGCCUUCACAAUGUCCUUTT against Brca1,active: 2.68
15,CGUGAUGAAUGAGAAUAACTT against Maea,inactive: 0.584
16,GCGAGUUCGAUUGCUUCUCTT against Cited4,inactive: 0.802
17,GGAAGGAACUCAAGAAGACTT against Ifrd1,active: 2.13
18,GGACUUAGUGUGGAAAAGATT against Ddah2,inactive: -1.69
19,GGAGAUAGCAAACCUUAAGTT against Ccdc60,inactive: 0.405
20,GGUGACUCCAAGAAUGUGGTT against Wfdc1,inactive: -0.703
21,GGUUACCUAGAAGUGGACUTT against Igsf6,inactive: 0.201
22,GGUCUCUUUUUGUUUCCUUTT against Ctf1,inactive: 0.913
23,GCUGCCAACGAAGAUGAGCTT against Casc1,inactive: 0.306

# Reformatted: entries from further up
row	Sequence	z-score
4	GGCUCUAUGUUUAUAAUGATT against Olfm5	active: -2.07
5	GGGUCUUAUCUCGAUGAGGTT against Flt3l	inactive: -0.199
6	CCAACAACGGCAUUCACUATT against Ebf3	inactive: -0.676
